# Measurements: paper PMC10593818
# These are yes or no findings as the source states them, for the method shown. Binding seen in cells or lysates may run through a third protein. Binding can be weak; no strength is given. Tags and fused reporters may be left off the sequences shown.
# Molecular target: T1, human CLEC2D-Flag (human) (UniProt Q9UHP7)
# T1 sequence: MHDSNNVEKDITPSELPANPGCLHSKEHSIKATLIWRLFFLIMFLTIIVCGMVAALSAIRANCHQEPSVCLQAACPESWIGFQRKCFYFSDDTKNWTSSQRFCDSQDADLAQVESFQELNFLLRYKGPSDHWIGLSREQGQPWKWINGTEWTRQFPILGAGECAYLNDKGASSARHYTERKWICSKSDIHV
# Experiment: co-IP; tagged proteins co-expressed in HEK293T cells, without or with C. albicans yeast (MOI = 5); lysed in Western and IP buffer; antibody-conjugated magnetic beads overnight at 4 °C; immunoblot
row,binding,Substance
1,no binding,human TLR2 with the extracellular domain deleted (domain or fragment)
2,binds,human TLR2 with the intracellular domain deleted (domain or fragment)
3,binds,human TLR2 with the transmembrane domain deleted (domain or fragment)
